Measurements: patent US20160122426A1 (DONG A SOCIO, published 2016)
Residue numbers refer to the chain shown, from its start. No constants are given. Whether binding was seen depends on the method and setting. Some binding calls cover weakened binding; strength is not graded here.

Sequences of proteins named here, by UniProt entry; tags and fusion partners are left off. A change or cut given only in a name is not applied to a line headed by its entry. A line that says so, or that is headed by a name, gives the form on record, which may keep a tag or linker.
human VEGF (P15692-4, form named): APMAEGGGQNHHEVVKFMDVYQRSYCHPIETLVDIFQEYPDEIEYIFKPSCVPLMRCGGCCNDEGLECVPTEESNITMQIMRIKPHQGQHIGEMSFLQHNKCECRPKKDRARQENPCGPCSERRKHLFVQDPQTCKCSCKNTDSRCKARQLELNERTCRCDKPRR

What was measured:
[1] = target: T1, human VEGF (human, UniProt P15692-4 27-191); assay: ELISA, human VEGF coated, anti-human Fc-HRP
T1 construct: Bought recombinant protein; also called hVEGF; human VEGF-A

[2] = target: T1, human VEGF; assay: ELISA, human VEGF coated, absorbance 650 nm [f]
[3] = target: T1, human VEGF; assay: ELISA, 0.2 µg/ml VEGF coated, scFv or IgG serially diluted
[4] = target: T2, mouse VEGF (mouse, UniProt Q00731-2 27-190); assay: as above
T2 construct: Bought recombinant protein; also called mVEGF-A; mouse VEGF-A
T2 sequence (looked up): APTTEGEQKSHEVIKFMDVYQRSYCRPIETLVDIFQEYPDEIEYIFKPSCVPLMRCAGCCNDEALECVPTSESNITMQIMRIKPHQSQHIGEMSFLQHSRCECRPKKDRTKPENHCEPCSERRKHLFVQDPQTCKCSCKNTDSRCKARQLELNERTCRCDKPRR
Protocol: ELISA plates were coated with 0.2 μg/ml of human VEGF and mouse VEGF (R&D systems, USA) respectively, and the purified proteins obtained in Example 5 in the form of scFv expressed by HB2151 or IgG expressed by 293F cells were incubated at serially diluted concentrations.

[5] = target: T1, human VEGF; assay: ELISA, human VEGF coated, absorbance 650 nm [g]

Measured: binding

B1: HF2-12 (antibody, V domains shown)
VH: EVQLVESGGGLVQPGGSLRLSCAASYSEVRSHGMQWVRQAPGKGLEYVAGISSDGSWFRVAAAVEGRFTISRDDSKNTAYLQMNSLRAEDTAVYYCARDFSTGYGADSIDAWGQGTLVTVSS
VL: DIQMTQSPSSLSASVGDRVTITCSGGSMEPLGYGWYQQKPGKAPKTLIYWDDKRPSGVPSRFSGSRSGTDFTLTISSLQPEDFATYYCGAWEYSGGVGIFGQGTKVEIK
not listed: [5]
binds: all other assays above

B2: HF2-24 (antibody, V domains shown)
VH: B1 VH with Y26R, S27F, E28N, V29M, F58V, R59K
VL: B1 VL with M28Q, P30S
not listed: [2]
binds: all other assays above
